{"source": "PubChem BioAssay AID248", "about": "(DTP/NCI, 2004)", "tested_on": "L1210 leukemia ip in BDF1 mice, survival T/C", "test": "NCI In Vivo Anticancer Drug Screen. Data for tumor model L1210 Leukemia (intraperitoneal) in B6D2F1 (BDF1) mice", "details": "T/C endpoint: median survival time, higher T/C = longer survival", "note": "The list shows only some results of the screen, not a fair sample: it gathers tests that were run many times, whatever their T/C, doses with no T/C, and many T/C values between a quarter and a half above the control. Other doses and runs of a compound stand elsewhere. T/C: endpoint of the treated group in % of that of the vehicle group. For survival time, this PubChem deposit counts one and a half times the control or more as active, and values a quarter to a half above the control carry no call in these data; other NCI protocols may use other cut-offs. Schedule codes are those of the source, taken here to give the interval after Q, in days (D) or hours (H), and the number of doses after X. Counts like (3×) count equal records among those shown. Some entries hold several experiments; the results are listed from low to high. Some schedule codes hold Z or #, which are not explained here.", "data": [{"smiles": "CN(C)/N=N/c1nc[nH]c1C(N)=O", "values": [{"measurement": "T/C", "setting": "dose: 39.0 mg/kg/injection, schedule: Q01DX Z (ip), vehicle: steroid suspending solution", "result": "127 % of control"}, {"measurement": "T/C", "setting": "dose: 50.0 mg/kg/injection, schedule: Q01DX017 (ip), vehicle: steroid suspending solution, evaluated on day 5", "result": "118 % of control"}, {"measurement": "T/C", "setting": "dose: 50.0 mg/kg/injection, schedule: Q01DX017 (ip), vehicle: steroid suspending solution, evaluated on day 30", "result": "118 % of control"}, {"measurement": "T/C", "setting": "dose: 50.0 mg/kg/injection, schedule: Q01DX017 (ip), vehicle: steroid suspending solution, evaluated on day 40", "result": "133 % of control"}, {"measurement": "T/C", "setting": "dose: 50.0 mg/kg/injection, schedule: Q01DX017 (ip), vehicle: steroid suspending solution, evaluated on day 50", "result": "122 % of control"}, {"measurement": "T/C", "setting": "dose: 50.0 mg/kg/injection, schedule: Q01DX017 (ip), vehicle: steroid suspending solution, evaluated on day 54", "result": "105, 122, 125 % of control"}, {"measurement": "T/C", "setting": "dose: 50.0 mg/kg/injection, schedule: Q01DX017 (ip), vehicle: steroid suspending solution, evaluated on day 60", "result": "133 % of control"}, {"measurement": "T/C", "setting": "dose: 50.0 mg/kg/injection, schedule: Q01DX017 (ip), vehicle: steroid suspending solution, evaluated on day 69", "result": "111 % of control"}, {"measurement": "T/C", "setting": "dose: 65.0 mg/kg/injection, schedule: Q01DX009 (ip), vehicle: steroid suspending solution", "result": "140 % of control"}, {"measurement": "T/C", "setting": "dose: 65.0 mg/kg/injection, schedule: Q01DX033 (ip), vehicle: other", "result": "130 % of control"}, {"measurement": "T/C", "setting": "dose: 65.0 mg/kg/injection, schedule: Q01DX Z (ip), vehicle: steroid suspending solution", "result": "133 % of control"}, {"measurement": "T/C", "setting": "dose: 100.0 mg/kg/injection, schedule: Q01DX009 (ip), vehicle: Klucel (hydroxypropylcellulose) (HPC), evaluated on day 24", "result": "150 % of control"}, {"measurement": "T/C", "setting": "dose: 100.0 mg/kg/injection, schedule: Q01DX009 (ip), vehicle: Klucel (hydroxypropylcellulose) (HPC), evaluated on day 26", "result": "130 % of control"}, {"measurement": "T/C", "setting": "dose: 100.0 mg/kg/injection, schedule: Q01DX009 (ip), vehicle: Klucel (hydroxypropylcellulose) (HPC), evaluated on day 30", "result": "122 % of control (2×)"}, {"measurement": "T/C", "setting": "dose: 100.0 mg/kg/injection, schedule: Q01DX009 (ip), vehicle: Klucel (hydroxypropylcellulose) (HPC), evaluated on day 40", "result": "133 % of control"}, {"measurement": "T/C", "setting": "dose: 100.0 mg/kg/injection, schedule: Q01DX017 (ip), vehicle: steroid suspending solution, evaluated on day 5", "result": "136 % of control"}, {"measurement": "T/C", "setting": "dose: 100.0 mg/kg/injection, schedule: Q01DX017 (ip), vehicle: steroid suspending solution, evaluated on day 30", "result": "122 and 136 % of control"}, {"measurement": "T/C", "setting": "dose: 100.0 mg/kg/injection, schedule: Q01DX017 (ip), vehicle: steroid suspending solution, evaluated on day 40", "result": "144 % of control"}, {"measurement": "T/C", "setting": "dose: 100.0 mg/kg/injection, schedule: Q01DX017 (ip), vehicle: steroid suspending solution, evaluated on day 45", "result": "144 % of control"}, {"measurement": "T/C", "setting": "dose: 100.0 mg/kg/injection, schedule: Q01DX017 (ip), vehicle: steroid suspending solution, evaluated on day 50", "result": "116 and 133 % of control"}, {"measurement": "T/C", "setting": "dose: 100.0 mg/kg/injection, schedule: Q01DX017 (ip), vehicle: steroid suspending solution, evaluated on day 54", "result": "116, 125, 127 % of control"}, {"measurement": "T/C", "setting": "dose: 100.0 mg/kg/injection, schedule: Q01DX017 (ip), vehicle: steroid suspending solution, evaluated on day 60", "result": "127 % of control"}, {"measurement": "T/C", "setting": "dose: 100.0 mg/kg/injection, schedule: Q01DX017 (ip), vehicle: steroid suspending solution, evaluated on day 69", "result": "116 % of control"}, {"measurement": "T/C", "setting": "dose: 100.0 mg/kg/injection, schedule: Q## X017 (ip), vehicle: steroid suspending solution", "result": "136 % of control"}, {"measurement": "T/C", "setting": "dose: 108.0 mg/kg/injection, schedule: Q01DX009 (ip), vehicle: Klucel (hydroxypropylcellulose) (HPC), evaluated on day 5", "result": "134 and 158 % of control"}, {"measurement": "T/C", "setting": "dose: 108.0 mg/kg/injection, schedule: Q01DX009 (ip), vehicle: Klucel (hydroxypropylcellulose) (HPC), evaluated on day 27", "result": "158 % of control"}, {"measurement": "T/C", "setting": "dose: 108.0 mg/kg/injection, schedule: Q01DX009 (ip), vehicle: Klucel (hydroxypropylcellulose) (HPC), evaluated on day 30", "result": "110, 136, 140 % of control"}, {"measurement": "T/C", "setting": "dose: 108.0 mg/kg/injection, schedule: Q01DX009 (ip), vehicle: Klucel (hydroxypropylcellulose) (HPC), evaluated on day 33", "result": "111 % of control"}, {"measurement": "T/C", "setting": "dose: 108.0 mg/kg/injection, schedule: Q01DX015 (ip), vehicle: Klucel (hydroxypropylcellulose) (HPC), evaluated on day 5", "result": "107 and 117 % of control"}, {"measurement": "T/C", "setting": "dose: 108.0 mg/kg/injection, schedule: Q01DX015 (ip), vehicle: Klucel (hydroxypropylcellulose) (HPC), evaluated on day 7", "result": "123 % of control"}, {"measurement": "T/C", "setting": "dose: 108.0 mg/kg/injection, schedule: Q01DX015 (ip), vehicle: Klucel (hydroxypropylcellulose) (HPC), evaluated on day 20", "result": "123 % of control"}, {"measurement": "T/C", "setting": "dose: 108.0 mg/kg/injection, schedule: Q01DX015 (ip), vehicle: Klucel (hydroxypropylcellulose) (HPC), evaluated on day 33", "result": "110 % of control"}, {"measurement": "T/C", "setting": "dose: 108.0 mg/kg/injection, schedule: Q01DX015 (ip), vehicle: Klucel (hydroxypropylcellulose) (HPC), evaluated on day 38", "result": "122 % of control"}, {"measurement": "T/C", "setting": "dose: 108.0 mg/kg/injection, schedule: Q01DX017 (ip), vehicle: Klucel (hydroxypropylcellulose) (HPC), evaluated on day 5", "result": "116 and 128 % of control"}, {"measurement": "T/C", "setting": "dose: 108.0 mg/kg/injection, schedule: Q01DX017 (ip), vehicle: Klucel (hydroxypropylcellulose) (HPC), evaluated on day 33", "result": "130 % of control"}, {"measurement": "T/C", "setting": "dose: 108.0 mg/kg/injection, schedule: Q01DX017 (ip), vehicle: Klucel (hydroxypropylcellulose) (HPC), evaluated on day 38", "result": "116 % of control"}, {"measurement": "T/C", "setting": "dose: 108.0 mg/kg/injection, schedule: Q01DX033 (ip), vehicle: other", "result": "136 % of control"}, {"measurement": "T/C", "setting": "dose: 108.0 mg/kg/injection, schedule: Q01DX Z (ip), vehicle: steroid suspending solution", "result": "138 % of control"}, {"measurement": "T/C", "setting": "dose: 160.0 mg/kg/injection, schedule: Q01DX009 (ip), vehicle: Klucel (hydroxypropylcellulose) (HPC)", "result": "128 % of control"}, {"measurement": "T/C", "setting": "dose: 180.0 mg/kg/injection, schedule: Q01DX009 (ip), vehicle: Klucel (hydroxypropylcellulose) (HPC), evaluated on day 5", "result": "151 and 168 % of control"}, {"measurement": "T/C", "setting": "dose: 180.0 mg/kg/injection, schedule: Q01DX009 (ip), vehicle: Klucel (hydroxypropylcellulose) (HPC), evaluated on day 27", "result": "168 % of control"}]}]}
